Results from patent US8476434B2, “Protein kinase modulators and method of use” (Amgen Inc., priority 2004, dated 2013).
pIC50: −log10 of the molar value. Some of these results come from one statement about several compounds together.

The chains behind the UniProt entries cited, without tags or fusion partners. Residues count along the entry.
UniProt Q02763, 23-1124: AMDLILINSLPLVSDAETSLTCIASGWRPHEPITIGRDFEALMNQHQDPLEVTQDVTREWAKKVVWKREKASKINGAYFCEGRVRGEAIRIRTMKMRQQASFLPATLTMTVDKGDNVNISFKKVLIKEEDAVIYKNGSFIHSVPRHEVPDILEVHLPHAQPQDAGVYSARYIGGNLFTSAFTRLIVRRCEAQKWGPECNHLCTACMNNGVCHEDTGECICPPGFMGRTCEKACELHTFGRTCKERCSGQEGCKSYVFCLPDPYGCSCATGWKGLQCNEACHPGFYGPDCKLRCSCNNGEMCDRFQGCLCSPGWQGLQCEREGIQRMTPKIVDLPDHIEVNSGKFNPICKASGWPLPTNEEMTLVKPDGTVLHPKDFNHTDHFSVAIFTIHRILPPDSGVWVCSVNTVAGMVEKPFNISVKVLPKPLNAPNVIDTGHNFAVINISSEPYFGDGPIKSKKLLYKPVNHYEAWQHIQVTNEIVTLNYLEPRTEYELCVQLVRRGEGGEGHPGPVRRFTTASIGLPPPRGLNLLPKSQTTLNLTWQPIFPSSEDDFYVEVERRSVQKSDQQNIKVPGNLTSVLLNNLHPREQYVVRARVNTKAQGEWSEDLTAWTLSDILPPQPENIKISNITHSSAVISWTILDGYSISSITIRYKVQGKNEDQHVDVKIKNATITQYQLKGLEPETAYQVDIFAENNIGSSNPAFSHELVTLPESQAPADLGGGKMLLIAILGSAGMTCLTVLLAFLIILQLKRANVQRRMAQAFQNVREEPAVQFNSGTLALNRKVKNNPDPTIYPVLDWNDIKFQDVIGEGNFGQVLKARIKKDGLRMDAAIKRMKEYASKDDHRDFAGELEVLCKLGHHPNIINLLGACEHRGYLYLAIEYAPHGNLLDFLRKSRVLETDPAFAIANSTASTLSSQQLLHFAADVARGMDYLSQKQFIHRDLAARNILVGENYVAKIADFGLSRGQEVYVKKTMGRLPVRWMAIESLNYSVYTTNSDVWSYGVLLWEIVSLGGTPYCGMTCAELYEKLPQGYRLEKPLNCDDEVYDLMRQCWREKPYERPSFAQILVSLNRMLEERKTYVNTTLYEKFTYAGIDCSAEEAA
UniProt Q96GD4, whole entry: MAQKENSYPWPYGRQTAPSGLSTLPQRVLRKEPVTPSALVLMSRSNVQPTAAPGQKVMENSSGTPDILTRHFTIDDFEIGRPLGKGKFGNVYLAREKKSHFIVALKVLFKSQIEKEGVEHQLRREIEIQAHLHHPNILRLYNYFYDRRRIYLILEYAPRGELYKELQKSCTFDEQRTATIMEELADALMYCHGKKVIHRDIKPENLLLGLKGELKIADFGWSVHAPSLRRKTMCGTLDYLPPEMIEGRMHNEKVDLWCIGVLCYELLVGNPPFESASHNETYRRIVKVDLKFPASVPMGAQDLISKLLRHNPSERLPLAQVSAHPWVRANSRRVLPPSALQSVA

Columns and labels:
Tie-2 kinase enzyme = Tie-2 kinase enzyme (Homo sapiens, UniProt Q02763); assay: Tie-2 Homogenous Time Resolved Fluorescent (HTRF) kinase assay; assay type: biochemical; conditions: read-out: IC50's for the inhibition of Tie-2 as measured by the HTRF assay
AuroraB FL His = target: T1, AuroraB FL His (Homo sapiens, UniProt Q96GD4); assay: AuroraB Homogeneous Time Resolved Fluorescent (HTRF) kinase assay; assay type: biochemical; conditions: read-out: activity in the Aurora kinase B HTRF assay
T1 construct: AuroraB FL His; His

Compound | pIC50 (Tie-2 kinase enzyme) | pIC50 (AuroraB FL His)
Cc1ccc(C(=O)Nc2ccc(-n3ccnc3)cc2)cc1Nc1ncccc1-c1ccncn1 [Example 169, N-(4-(1H-imidazol-1-yl)phenyl)-4-methyl-3-((3-(4-pyrimidinyl)-2-pyridinyl)amino)benzamide] | > 5.30 | > 5.00
Cc1ccc(C(=O)Nc2cc(OC[C@@H]3CCCN3)cc(C(F)(F)F)c2)cc1Nc1ncccc1-c1ccncn1 [Example 172, 4-methyl-3-((3-(4-pyrimidinyl)-2-pyridinyl)amino)-N-(3-(((2S)-2-pyrrolidinylmethyl)oxy)-5-(trifluoromethyl)phenyl)benzamide] | > 5.30 | > 5.00
Cc1ccc(C(=O)Nc2cc(OCCN3CCCCC3)cc(C(F)(F)F)c2)cc1Nc1ncccc1-c1ccncn1 [Example 173, 4-methyl-N-(3-((2-(1-piperidinyl)ethyl)oxy)-5-(trifluoromethyl)phenyl) 3-((3-(4-pyrimidinyl)-2-pyridinyl)amino)benzamide] | > 5.30 | > 5.00
Cc1ccc(C(=O)Nc2cccc(OC[C@@H]3CCCN3C)n2)cc1Nc1ncccc1-c1ccncn1 [Example 174, 4-methyl-N-(6-((((2S)-1-methyl-2-pyrrolidinyl)methyl)oxy)-2-pyridinyl)-3-((3-(4-pyrimidinyl)-2-pyridinyl)amino)benzamide] | > 5.30 | > 5.00
Cc1ccc(C(=O)Nc2cc(OCCN3CCC[C@H]3CO)cc(C(F)(F)F)c2)cc1Nc1ncccc1-c1ccncn1 [Example 229, N-(3-(2-((S)-2-(hydroxymethyl)pyrrolidin-1-yl)ethoxy)-5-(trifluoromethyl)phenyl)-4-methyl-3-(3-(pyrimidin-4-yl)pyridin-2-ylamino)benzamide] | > 5.30 | > 5.00
CNc1ncnc(-c2cccnc2Oc2ccc(F)c(C(=O)Nc3cccc(C(F)(F)F)c3)c2)n1 [Example 370, 2-fluoro-5-((3-(4-(methylamino)-1,3,5-tirazin-2-yl)-2-pyridinyl)oxy)-N-(3-(trifluoromethyl)phenyl) benzamide] | > 5.30 | > 5.00
CC(C)(C)c1cccc(NC(=O)c2cccc(Oc3ncccc3-c3ccncn3)c2)c1 [Example 580, N-(3-(1,1-dimethylethyl)phenyl)-3-((3-(4-pyrimidinyl)-2-pyridinyl)oxy)benzamide] | > 5.30 | > 5.00
Cc1ccc(C(=O)Nc2cccc(C(C)(C)C)c2)cc1Oc1ncccc1-c1ccncn1 [Example 604, N-(3-(1,1-dimethylethyl)phenyl)-4-methyl-3-((3-(4-pyrimidinyl)-2-pyridinyl)oxy)benzamide] | > 5.30 | > 5.00
CNc1nccc(-c2cccnc2Oc2ccc(NC(=S)Nc3cccc(C(F)(F)F)c3)cc2C)n1 [Example 791, N-(3-methyl-4-((3-(2-(methylamino)-4-pyrimidinyl)-2-pyridinyl)oxy)phenyl)-N′-(3-(trifluoromethyl)phenyl)thio-urea] | > 5.30 | > 5.00
CNc1nccc(-c2cccnc2Oc2ccc(NC(=S)Nc3ccccc3)cc2C)n1 [Example 796, N-(3-methyl-4-((3-(2-(methylamino)-4-pyrimidinyl)-2-pyridinyl)oxy)phenyl) N′-phenylthiourea] | > 5.30 | > 5.00
CNc1ncnc(-c2cccnc2Oc2ccc(NC(=O)Nc3cc(C(F)(F)F)ccc3N3CC[C@H](N(C)C)C3)c3ccccc23)n1 [Example 798, N-(2-((3S)-3-(dimethylamino)-1-pyrrolidinyl)-5-(trifluoromethyl)phenyl)-N′-(4-((3-(4-(methylamino)-1,3,5-triazin-2-yl)-2-pyridinyl)oxy)-1-naphthalenyl)urea] | > 5.30 | > 5.00
CCNC(=O)Nc1ccc(Oc2ncccc2-c2ccnc(NC)n2)c2ccccc12 [Example 1109, N-ethyl-N′-(4-((3-(2-(methylamino)-4-pyrimidinyl)-2-pyridinyl)oxy)-1-naphthalenyl)urea] | > 5.30 | > 5.00
